In publication PMC12204374 one finds binding data, which are given here for four molecules.

The target in this assay is T1, McdA (Maintenance of Carboxysome Distribution protein A) of Halothiobacillus neapolitanus (H. neapolitanus) (UniProt D0KZ82).
T1 sequence: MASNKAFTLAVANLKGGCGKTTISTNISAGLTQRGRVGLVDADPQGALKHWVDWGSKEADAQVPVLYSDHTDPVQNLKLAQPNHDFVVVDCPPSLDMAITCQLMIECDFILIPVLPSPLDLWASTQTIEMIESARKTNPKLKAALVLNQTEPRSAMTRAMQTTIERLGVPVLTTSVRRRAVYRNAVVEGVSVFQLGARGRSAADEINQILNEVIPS
Nature of the assay: two-hybrid; bacterial two-hybrid (B2H) in E. coli BTH101; N-terminal T18 and T25 fusions (pUT18C, pKT25) in both pairwise combinations; LB X-gal plates with 0.5 mM IPTG at 30 °C and β-galactosidase activity in Miller Units.

Substitutions are numbered along the chain they refer to. Names may count otherwise. No constants are given. Whether binding was seen depends on the method and setting. Some binding calls cover weakened binding; strength is not graded here.

MTNLEDKLSASIKTENKDTI (peptide, UniProt D0KZ81 1-20) [20-amino acid N-terminal peptide of McdB]: the binding entry was “binds”.

B1: McdB (Maintenance of Carboxysome Distribution protein B) of Halothiobacillus neapolitanus, wildtype (protein, UniProt D0KZ81 1-96)
chain: MTNLEDKLSASIKTENKDTIAPASTPAKPAARSAAPETTKPASTGAKPATRTAAKKPVARATTTKPAVSKSSKPSADDIQVPAHDTSTHPRRVWPD
As to B1, the binding entry is given as “binds”.

B2: McdB[K13A] (protein, UniProt D0KZ81 1-96)
chain: B1 chain with K13A
On to B2, for which the binding entry is on record as “binds”.

B3: McdB[K17A] (protein, UniProt D0KZ81 1-96)
chain: B1 chain with K17A
For the molecule B3, the binding entry is recorded as “binds”.
